# What was measured:
# male Wistar rats [1] = experiment: Experiment 4: diarrhoea and mesentery histopathology in rats, roflumilast with or without SC-560 or lumiracoxib; assay type: in vivo, rat
# male Wistar rats [2] = experiment: Experiment 3: weight loss, leukocytosis and neutrophilia in rats, roflumilast with or without SC-560 or lumiracoxib; assay type: in vivo, rat; details: 2 mg/kg p.o. at 0800 and 1700, four days
# [3] = animals affected out of animals examined, p.o. four days, roflumilast 10 mg/kg at 1300, SC-560 or lumiracoxib 2 mg/kg at 0800 and 1700, 95 hours after t0
structure (smiles),measurement,setting,value
COc1ccc(-n2nc(C(F)(F)F)cc2-c2ccc(Cl)cc2)cc1 [SC-560],protective effect on the histopathological findings (multifocal perivascular mononuclear infiltration or proliferation of fibroblasts in the mesentery),"male Wistar rats [1]; SC-560 2 mg/kg p.o. at 0800 and 1700 co-administered with roflumilast 10 mg/kg, four days",only a very slight protective effect
same,Mesentery: Proliferation of fibroblasts,male Wistar rats [1]; [3],0/5
same,Mesentery: multifocal perivascular mononuclear infiltration (=inflammation parameter),male Wistar rats [1]; [3],0/5
same,"parameters measured after the administration of the NSAID alone, compared with control",male Wistar rats [2],very similar to the control groups

# From US8759326B2, “Drug combinations containing PDE4 inhibitors and NSAIDs” (Boehringer Ingelheim International GmbH, priority 2009, dated 2014)
